PMC12134396
These are yes or no findings as the source states them, for the method shown. Binding seen in cells or lysates may run through a third protein. These calls come from enrichment with a bait or labelling near it, and not all partners need be listed.

Sequences of proteins named here, by UniProt entry; tags and fusion partners are left off.
UniProt P42771: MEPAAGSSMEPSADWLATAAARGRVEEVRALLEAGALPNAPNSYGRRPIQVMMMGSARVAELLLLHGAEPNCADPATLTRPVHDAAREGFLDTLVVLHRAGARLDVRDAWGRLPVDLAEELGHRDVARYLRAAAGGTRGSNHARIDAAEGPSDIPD
UniProt P40763: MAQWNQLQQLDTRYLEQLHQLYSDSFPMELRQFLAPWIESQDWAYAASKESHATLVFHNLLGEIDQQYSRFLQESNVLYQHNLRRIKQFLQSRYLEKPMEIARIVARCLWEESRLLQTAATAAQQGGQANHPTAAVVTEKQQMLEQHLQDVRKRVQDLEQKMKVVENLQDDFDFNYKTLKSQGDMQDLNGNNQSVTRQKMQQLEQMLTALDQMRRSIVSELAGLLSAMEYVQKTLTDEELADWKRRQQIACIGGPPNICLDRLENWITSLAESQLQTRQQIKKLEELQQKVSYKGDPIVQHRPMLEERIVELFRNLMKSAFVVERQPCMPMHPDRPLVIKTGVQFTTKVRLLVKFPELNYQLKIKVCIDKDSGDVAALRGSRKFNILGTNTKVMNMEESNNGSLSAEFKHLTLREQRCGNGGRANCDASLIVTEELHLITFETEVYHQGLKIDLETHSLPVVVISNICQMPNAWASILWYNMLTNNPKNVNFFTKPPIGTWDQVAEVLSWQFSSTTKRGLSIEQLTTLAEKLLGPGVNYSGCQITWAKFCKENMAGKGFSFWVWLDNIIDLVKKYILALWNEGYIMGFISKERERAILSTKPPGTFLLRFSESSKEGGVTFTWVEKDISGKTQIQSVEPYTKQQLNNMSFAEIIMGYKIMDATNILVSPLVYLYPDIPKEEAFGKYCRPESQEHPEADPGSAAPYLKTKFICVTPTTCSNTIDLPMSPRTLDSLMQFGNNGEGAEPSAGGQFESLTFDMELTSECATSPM

Target: p16^INK4a, overexpressed from adenovirus in fibroblasts (p16-OE) (UniProt P42771)
Assay: affinity purification with mass spectrometry; anti-p16 immunoprecipitation of lysates of HCFB cells transduced with p16-overexpressing adenovirus, then mass spectrometry

In the case of “STAT3, endogenous in human fibroblasts (from UniProt P40763 1-770)”, the binding is reported as “binds”.
